{"sequences": {"note": "Sequences of proteins named here, by UniProt entry; tags and fusion partners are left off.", "UniProt P20700": "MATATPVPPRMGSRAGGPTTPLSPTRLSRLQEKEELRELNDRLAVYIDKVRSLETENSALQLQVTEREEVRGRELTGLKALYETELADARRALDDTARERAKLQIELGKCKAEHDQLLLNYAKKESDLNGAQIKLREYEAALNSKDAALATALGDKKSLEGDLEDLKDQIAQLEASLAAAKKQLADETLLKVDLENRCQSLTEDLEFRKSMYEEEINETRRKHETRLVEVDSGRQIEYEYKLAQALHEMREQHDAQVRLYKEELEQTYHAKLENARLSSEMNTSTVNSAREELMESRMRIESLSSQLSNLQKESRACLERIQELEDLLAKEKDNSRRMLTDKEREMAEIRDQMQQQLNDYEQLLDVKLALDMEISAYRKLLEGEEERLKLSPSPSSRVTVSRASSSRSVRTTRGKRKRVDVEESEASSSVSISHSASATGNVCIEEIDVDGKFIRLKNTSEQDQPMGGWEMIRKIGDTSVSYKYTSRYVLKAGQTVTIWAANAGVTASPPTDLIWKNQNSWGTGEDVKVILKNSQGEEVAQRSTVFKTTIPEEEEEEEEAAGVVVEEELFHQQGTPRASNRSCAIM"}, "source": "paper doi:10.1101/2025.08.13.670143", "molecular_target": "V5-BirA-Lamin B1 (Lamin B1 with an N-terminal V5 epitope tag and mini-Turbo BirA) (UniProt P20700)", "experiment": "proximity labelling", "note": "No constants are given. Whether binding was seen depends on the method and setting. In cells and extracts the contact can be indirect. A yes stands for co-enrichment or nearness to the bait. Other partners may have been found.", "data": [{"substance": "hnRNPK (from UniProt P61978 1-463)", "values": [{"measurement": "binding", "result": "binds"}]}]}
